PubChem BioAssay AID1259254, NCATS, 2017

- Test: 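Finding genes that stop cells copying their DNA twice in one cycle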 (primary screen)
- Cell system: human HCT116 colorectal cancer cells
- Reagent: single siRNA against human genes
- Timing: 3 days
- Measured: 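Imaged Hoechst DNA stain sorts each cell into a cycle phase by DNA amount; per plate, G2 fraction set to 0% for non-targeting and 100% for GMNN siRNA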
- Reading the numbers: G2 robust z-score: higher = more G2 cells, more excess DNA replication
- Active means: 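An siRNA counts as active if its G2 robust z-score lies at least 5 MADs above the screen median; here such calls match roughly 38% of GMNN control or more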
This is one part, drawn at random, of about 59,000 reagents tested. Over the whole deposit, about 1,550 (2.6%) are marked active. 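G2 share is only a proxy for re-replication; each gene was hit by three separate siRNAs, and active genes were retested.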 The numbers tell different reagents against one gene apart. Further read-outs or replicates are left out here. Not given: the amount of reagent.

G2 robust z-score, by gene and reagent
BTBD8 (GeneID 284697): #1 0.421 inactive; #2 -0.687 inactive; #3 -0.85 inactive
LRIG3 (GeneID 121227): #1 -0.903 inactive; #2 1.03 inactive; #3 -0.837 inactive
GATA5 (GeneID 140628): #1 0.188 inactive; #2 -0.338 inactive; #3 -0.54 inactive
HOXB3 (GeneID 3213): #1 0.344 inactive; #2 0.334 inactive; #3 -0.667 inactive
MEF2D (GeneID 4209): #1 -1.14 inactive; #2 0.183 inactive; #3 -1.38 inactive
MAGED1 (GeneID 9500): #1 -1.49 inactive; #2 0.312 inactive; #3 0.24 inactive
MRAS (GeneID 22808): #1 0.0412 inactive; #2 -0.101 inactive; #3 -1.24 inactive
SVBP (GeneID 374969): #1 -0.729 inactive; #2 -0.746 inactive; #3 0.279 inactive

Ordered by “G2 robust z-score” (descending): 8 of the entries above
gene	reagent	G2 robust z-score	activity call
MAGED1 (GeneID 9500)	2	0.312	inactive
MAGED1 (GeneID 9500)	3	0.24	inactive
MEF2D (GeneID 4209)	2	0.183	inactive
MRAS (GeneID 22808)	1	0.0412	inactive
MRAS (GeneID 22808)	2	-0.101	inactive
MRAS (GeneID 22808)	3	-1.24	inactive
MEF2D (GeneID 4209)	3	-1.38	inactive
MAGED1 (GeneID 9500)	1	-1.49	inactive

The list goes on:
G2 robust z-score, by gene and reagent
MUC7 (GeneID 4589): #1 0.962 inactive; #2 0.306 inactive; #3 -0.783 inactive
ANKRD10 (GeneID 55608): #1 0.667 inactive; #2 0.465 inactive; #3 -0.58 inactive
MAPK14 (GeneID 1432): #1 -0.17 inactive; #2 -0.722 inactive; #3 -0.512 inactive
POGLUT2 (GeneID 79070): #1 0.113 inactive; #2 2.13 inactive; #3 1.77 inactive
SLC25A40 (GeneID 55972): #1 -0.486 inactive; #2 -0.98 inactive; #3 -0.0797 inactive
ERI1 (GeneID 90459): #1 0.444 inactive; #2 0.229 inactive; #3 -1.2 inactive
SECTM1 (GeneID 6398): #1 -0.248 inactive; #2 -0.63 inactive; #3 -0.268 inactive
HTR1A (GeneID 3350): #1 -0.701 inactive; #2 -0.5 inactive; #3 0.429 inactive
